PubChem BioAssay AID504793 – Drosophila RNAi Screening Center – 2011

- Test: 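Genes required for cells to halt at G2/M after double-strand DNA breaks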 (primary screen)
- Cell system: Drosophila S2R+ cells
- Reagents: long dsRNA against Drosophila genes, about 0.25 µg dsRNA per well
- Duration: 4 days of dsRNA, then 4 hours of drug before read-out
- Conditions: doxorubicin 0.5 µM for 4 hours to cause double-strand breaks, in cells also given a low, harmless dose of dsRNA against nbs to sensitise the assay
- Read-out: 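Mitotic index as the number of phospho-histone H3-positive cells in each well following doxorubicin, given as raw counts without normalisation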
- Direction: mitotic cells: higher = more cells in mitosis, weaker G2 arrest
- Active means: 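a call needs confirmation in secondary tests, with other dsRNAs and a check of mitotic timing without damage, not just a high primary count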
- Calls: active = confirmed in follow-up tests; inactive = not confirmed
The deposit covers about 23,000 reagents; this is a random part of those that have a named target and a result. Of all reagents, 62 (0.27%) were called active. 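Calls come from follow-up tests whose scores are not deposited, so confirmed genes may have low counts here; counts are not normalised per plate.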 The raw values are shown without normalisation. Names joined by + are all predicted targets of the reagent.

gene knocked down	dsRNA	mitotic cells, replicate 1	mitotic cells, replicate 2	outcome
Aladin	DRSC18121	8		inactive
Aladin	DRSC29497	3		inactive
CG12171	DRSC12200	4		inactive
CG12171	DRSC25540	8		inactive
Cyt-c-p	DRSC03310	6		inactive
CG3330	DRSC15477	13		inactive
Shawn + Tyler	DRSC19564	9		inactive
Shawn + Tyler	DRSC19565	13		inactive
mfrn	DRSC15687	10		inactive
CG34450	DRSC17822	9		inactive
CG34450	DRSC25085	1		inactive
lost	DRSC12002	13		inactive
lost	DRSC12234	5		inactive
lost	DRSC21987	13		inactive
CG3149	DRSC17732	6		inactive
CG3149	DRSC27511	7		inactive
CG14252	DRSC14747	11		inactive
CG15080	DRSC06511	13		inactive
CG15080	DRSC29374	3		inactive
l(3)S110416 (retired record)	DRSC17094	6		inactive
Or9a	DRSC18692	9		inactive
Or9a	DRSC28277	6		inactive
CG10413	DRSC02052	10		inactive
CG30492 (retired record) + M7BP	DRSC05053	9		inactive
CG30492 (retired record) + M7BP	DRSC05054	7		inactive
CG30492 (retired record) + M7BP	DRSC06701	3		inactive
CG30492 (retired record) + M7BP	DRSC06816	6		inactive
CG30492 (retired record) + M7BP	DRSC26905	7		inactive
CR33294	DRSC22950	6		inactive
ASPP	DRSC23069	12		inactive
erm	DRSC00700	5		inactive
mthl2	DRSC10287	7		inactive
mthl2	DRSC27003	10		inactive
RpS19a	DRSC20281	10		inactive
Cdk12	DRSC11836	14		inactive
Cdk12	DRSC23323	9		inactive
Cdk12	DRSC29623	5		inactive
zen	DRSC12632	4		inactive
zen	DRSC23673	1		inactive
CG5793	DRSC15874	10		inactive
CG5793	DRSC26692	9		inactive
Ugt303B2	DRSC14198	7		inactive
Ugt303B2	DRSC22864	9		inactive
p24-1	DRSC19827	19		inactive
p24-1	DRSC26718	5		inactive
ppk6	DRSC06062	4		inactive
ppk6	DRSC29267	6		inactive
CG17177	DRSC10257	2		inactive
Teh1	DRSC14544	4		inactive
CG18368	DRSC06731	8		inactive
vkg	DRSC03632	9		inactive
CG17267	DRSC15207	9		inactive
yellow-e2	DRSC15169	7		inactive
mus201 + Chrac-14	DRSC03568	5		inactive
mus201 + Chrac-14	DRSC03575	3		inactive
CG3744	DRSC15511	18		inactive
CG3744	DRSC29964	5		inactive
CG14453	DRSC11710	8	11	inactive
CG14453	DRSC23780	11		inactive
AnxB10	DRSC20677	1		inactive
AnxB10	DRSC25182	5		inactive
Prosalpha4T1	DRSC16800	11		inactive
Prosalpha4T1	DRSC28895	8		inactive
E(Pc)	DRSC05281	3		inactive
E(Pc)	DRSC07408	5		inactive
Nup75	DRSC06947	10		inactive
Nup75	DRSC28056	4		inactive
CG9570	DRSC20687	4		inactive
Atox1	DRSC22416	13		inactive
prc	DRSC11385	3		inactive
angel	DRSC04670	8		inactive
angel	DRSC21326	13		inactive
CG3769	DRSC02723	2		inactive
Nt5b	DRSC19976	12		inactive
Nt5b	DRSC19977	5		inactive
Nt5b	DRSC19978	10		inactive
Nt5b	DRSC22588	10		inactive
Nt5b	DRSC28223	4		inactive
CG2493	DRSC02707	3		inactive
Or82a	DRSC11996	5		inactive
CG10182	DRSC14202	18		inactive
CG10182	DRSC25451	4		inactive
Klp67A	DRSC11205	35		inactive
Klp67A	DRSC26028	49		inactive
CG14153	DRSC10155	3		inactive
CG14153	DRSC22595	6		inactive
smog	DRSC00334	7		inactive
smog	DRSC23053	15		inactive
smog	DRSC27223	7		inactive
CG3880	DRSC04428	7		inactive
CG3880	DRSC21404	10		inactive
CG3880	DRSC27449	3		inactive
CG9162 (retired record)	DRSC03151	8		inactive
Ugt302C1	DRSC15353	6		inactive
Ugt302C1	DRSC24517	2		inactive
Synj	DRSC04526	4		inactive
CG42500	DRSC14822	6		inactive
CG13643	DRSC14641	9		inactive
CG13643	DRSC14642	9		inactive
CG13643	DRSC28349	10		inactive
CG11106	DRSC19381	8		inactive
CG16798	DRSC02517	9		inactive
Fs	DRSC06258	2		inactive
Fs	DRSC06259	5		inactive
Fs	DRSC23507	9		inactive
Apt1	DRSC10348	5		inactive
Cbp80	DRSC18450	11		inactive
CG16935	DRSC06638	9		inactive
CG34409	DRSC14577	6		inactive
CG34409	DRSC21667	7		inactive

Look-ups from the list.
Entry for CG3744 [DRSC29964] under “mitotic cells, replicate 1”: 5
Entry of Synj [DRSC04526] in “mitotic cells, replicate 1”: 4
For “outcome”, mthl2 [DRSC10287] is entered as inactive
Under “outcome”, CG3880 [DRSC27449] shows inactive
Value for lost [DRSC12234] under “mitotic cells, replicate 1”: 5
CG30492 (retired record) + M7BP [DRSC05053], outcome → inactive
